# Test results taken from paper PMC13151129.
# Chains of the proteins cited; added tags and fusions are not shown. Lines headed by an entry give the natural chain unless they say otherwise; changes in a name come on top. A line that says so, or that is headed by a name, gives the form on record, which may keep a tag or linker. Residues count along the entry.
# p75 neurotrophin receptor (p75^NTR), wild type (mouse (endogenous in hippocampus)) (Q9Z0W1, residues 32-427): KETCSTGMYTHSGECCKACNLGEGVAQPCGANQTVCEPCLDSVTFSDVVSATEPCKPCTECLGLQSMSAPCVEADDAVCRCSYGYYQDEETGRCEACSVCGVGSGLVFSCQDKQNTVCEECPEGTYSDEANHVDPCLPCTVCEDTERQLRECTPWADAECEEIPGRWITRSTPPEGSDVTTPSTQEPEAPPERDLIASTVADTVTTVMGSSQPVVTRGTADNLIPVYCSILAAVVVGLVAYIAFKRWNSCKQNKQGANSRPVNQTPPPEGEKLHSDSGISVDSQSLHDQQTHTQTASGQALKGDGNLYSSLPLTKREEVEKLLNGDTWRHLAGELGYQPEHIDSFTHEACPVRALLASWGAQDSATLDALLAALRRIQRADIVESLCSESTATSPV
# palmitoylation-deficient mutant of p75^NTR (p75^C281A) (mouse (endogenous in hippocampus)) (Q9Z0W1, form named): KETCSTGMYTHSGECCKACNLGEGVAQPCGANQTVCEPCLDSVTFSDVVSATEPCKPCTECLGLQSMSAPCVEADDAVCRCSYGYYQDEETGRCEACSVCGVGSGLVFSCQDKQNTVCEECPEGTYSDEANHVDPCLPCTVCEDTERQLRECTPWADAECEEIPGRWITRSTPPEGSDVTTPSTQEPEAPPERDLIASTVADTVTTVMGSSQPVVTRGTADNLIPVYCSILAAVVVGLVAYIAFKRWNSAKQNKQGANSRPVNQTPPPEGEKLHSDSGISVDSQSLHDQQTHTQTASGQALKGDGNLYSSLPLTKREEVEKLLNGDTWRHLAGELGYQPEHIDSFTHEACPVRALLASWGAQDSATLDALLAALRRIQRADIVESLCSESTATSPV
# These are yes or no findings as the source states them, for the method shown. Binding seen in cells or lysates may run through a third protein. Some entries that bind do so weakly or less than the wild type.
# Tests used:
# [1] = target: p75^NTR, wild type, HA- or Myc-tagged, transfected (UniProt Q9Z0W1); test: co-IP; HEK293T cells co-transfected with HA-tagged and Myc-tagged p75^NTR (wild type and C281A), 24 h; Co-IP lysis buffer; precipitated with HA antibody overnight at 4 °C, protein A/G magnetic beads; Western blot
# [2] = target: p75^NTR C281A palmitoylation-deficient mutant, HA- or Myc-tagged, transfected (UniProt Q9Z0W1); test: as above
# [3] = target: p75 neurotrophin receptor (p75^NTR), wild type (mouse (endogenous in hippocampus)) (UniProt Q9Z0W1); test: co-IP; postnatal day 7 hippocampal extracts from WT or m/m mice; Co-IP lysis buffer (50 mM Tris-HCl pH 7.2, NaCl, 0.5 mM EDTA, 250 mM sucrose, 60 mM octyl-β-glucoside, 1% Triton X-100); precipitated with antibody to the p75^NTR death domain overnight at 4 °C, protein A/G magnetic beads; Western …
# [4] = target: palmitoylation-deficient mutant of p75^NTR (p75^C281A) (mouse (endogenous in hippocampus)) (UniProt Q9Z0W1); test: as above
binding [1],binding [2],Molecule,binding [3],binding [4]
binds,–,"p75^NTR, wild type, HA- or Myc-tagged, transfected (from UniProt Q9Z0W1 32-427) (receptor)",–,–
binds,binds,"p75^NTR C281A palmitoylation-deficient mutant, HA- or Myc-tagged, transfected (from UniProt Q9Z0W1 32-427) (receptor)",–,–
–,–,"caveolin-1 (protein, UniProt P49817 1-178) MSGGKYVDSEGHLYTVPIREQGNIYKPNNKAMADEVTEKQVYDAHTKEIDLVNRDPKHLNDDVVKIDFEDVIAEPEGTHSFDGIWKASFTTFTVTKYWFYRLLSTIFGIPMALIWGIYFAILSFLHIWAVVPCIKSFLIEIQCISRVYSIYVHTFCDPLFEAIGKIFSNIRISTQKEI",binds,binds
